The record followed here is the supplement of paper PMC4604168 (melanoma cell lines).

Molecules are shown by their SMILES. Some of the results follow. Repeats are few or missing, and single values can be far off.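 Cells were imaged in 1,536-well plates, and nuclei stained with an antibody against cleaved PARP were counted against all DNA-stained nuclei to give the apoptosis fraction. Screening doses were chosen to leave most cells alive, and resting and induced cleaved-PARP levels differ strongly between cell lines.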

In the experiment the test system is RVH-421. The experiment is described as follows: cleaved PARP positive nuclei fraction relative to DMSO control; melanoma cells; higher = more apoptosis. The following applies: library dose: low library concentration; 72 h.
As for `NC(=O)Nc1cc(-c2cccc(F)c2)sc1C(=O)N[C@H]1CCCNC1` + Oc1cc(-c2nc(-c3ccccc3)[nH]c2-c2ccncc2)ccc1Cl [L779450] (first compound 0.02 µM, partner dose 0.2 µM), the “cleaved PARP positive nuclei fraction” value worked out at 175%.

With `C#Cc1cccc(Nc2ncnc3cc(OCCOC)c(OCCOC)cc23)c1` [erlotinib] + c1cc(-c2cnn3cc(-c4ccc(OCCN5CCCCC5)cc4)cnc23)ccn1 [Dorsomorphin] (first compound 0.8 µM, partner dose 0.4 µM), the “cleaved PARP positive nuclei fraction” value worked out at 98%.

As for `O=C(CCCCCCC(=O)Nc1ccccc1)NO` [vorinostat] + CC(C)CCN1c2nc(Nc3cc(F)c(O)c(F)c3)ncc2N(C)C(=O)C1C [BID1870] (first compound 0.08 µM, partner dose 0.2 µM), the “cleaved PARP positive nuclei fraction” value is 42.3%.

Consider `C#Cc1cccc(Nc2ncnc3cc(OCCOC)c(OCCOC)cc23)c1` [erlotinib] + CCCCCCCCCCCC1=C(O)C(=O)C=C(O)C1=O [Embelin] (first compound 0.8 µM, partner dose 1.2 µM), for which the “cleaved PARP positive nuclei fraction” value is 19.1%.

With `Cn1nnc2c(C(N)=O)ncn2c1=O` [temozolomide] + CC(C)CCN1c2nc(Nc3cc(F)c(O)c(F)c3)ncc2N(C)C(=O)C1C [BID1870] (first compound 2 µM, partner dose 0.2 µM), the “cleaved PARP positive nuclei fraction” value was found to be 95.4%.

On to `C#Cc1cccc(Nc2ncnc3cc(OCCOC)c(OCCOC)cc23)c1` [erlotinib] + O=C(O)C(=O)Nc1sc2c(c1C(=O)O)CCNC2 [TCS401] (first compound 0.8 µM, partner dose 1.66667 µM), for which the “cleaved PARP positive nuclei fraction” value turned out to be 61.4%.
